The other results are listed elsewhere or left out.
Each target was assayed with Cc1nc(Nc2n[nH]c3c2CN(C(=O)N[C@H](CN(C)C)c2ccccc2)C3(C)C)c2sccc2n1 (assay: log2 fold change, soluble protein after heating vs DMSO (PISA); higher = thermal stabilisation; K562 lysate, 10 uM; active = over 0.2 and 3.5 SD of the protein, either way, in both replicates (recomputed)).
In short: (§1)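 Quantification was by TMTpro 16plex LC-MS/MS with equalised channel sums, applied to the supernatant after 21,000xg for 90 min. Samples were crude K562 extract at 1 mg/mL protein in PBS pH 7.4 with 1 mM MgCl2, treated with 10 μM compound for 30 min, heated for 3 min across 48°C-58°C, pooled and brought to 0.5% NP-40 at 4°C. Values are log-two fold changes in thermal stability relative to solvent controls, from duplicates.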

Amino acid sequences for entries named in this document (tags omitted). A change or cut given only in a name is not applied to a line headed by its entry.
UniProt Q13362, whole entry, looked up: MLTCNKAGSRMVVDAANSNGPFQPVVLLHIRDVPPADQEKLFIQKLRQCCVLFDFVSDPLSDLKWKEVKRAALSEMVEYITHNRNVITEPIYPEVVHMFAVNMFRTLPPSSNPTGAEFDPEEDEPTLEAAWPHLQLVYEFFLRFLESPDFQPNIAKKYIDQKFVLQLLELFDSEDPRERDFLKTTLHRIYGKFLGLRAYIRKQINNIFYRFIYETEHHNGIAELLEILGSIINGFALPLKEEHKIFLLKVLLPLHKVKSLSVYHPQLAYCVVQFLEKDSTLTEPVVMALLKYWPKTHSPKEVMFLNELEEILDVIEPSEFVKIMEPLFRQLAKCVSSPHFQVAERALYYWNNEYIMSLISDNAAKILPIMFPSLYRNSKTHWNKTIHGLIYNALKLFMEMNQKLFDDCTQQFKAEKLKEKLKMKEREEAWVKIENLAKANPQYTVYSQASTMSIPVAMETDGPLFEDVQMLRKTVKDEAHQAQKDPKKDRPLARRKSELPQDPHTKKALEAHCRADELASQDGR
UniProt O75688: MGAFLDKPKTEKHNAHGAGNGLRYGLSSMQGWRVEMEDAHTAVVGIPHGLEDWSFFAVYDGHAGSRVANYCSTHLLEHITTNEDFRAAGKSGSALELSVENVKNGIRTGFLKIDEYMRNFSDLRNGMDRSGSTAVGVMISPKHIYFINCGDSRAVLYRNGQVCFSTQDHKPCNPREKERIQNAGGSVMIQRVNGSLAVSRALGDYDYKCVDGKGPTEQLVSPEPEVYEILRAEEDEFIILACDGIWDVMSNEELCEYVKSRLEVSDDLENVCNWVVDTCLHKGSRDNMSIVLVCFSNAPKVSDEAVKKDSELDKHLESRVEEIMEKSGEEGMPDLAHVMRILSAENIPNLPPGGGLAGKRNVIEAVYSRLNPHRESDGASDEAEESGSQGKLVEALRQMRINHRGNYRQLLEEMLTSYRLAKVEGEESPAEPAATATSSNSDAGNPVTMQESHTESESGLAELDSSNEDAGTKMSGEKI
UniProt Q969Q6: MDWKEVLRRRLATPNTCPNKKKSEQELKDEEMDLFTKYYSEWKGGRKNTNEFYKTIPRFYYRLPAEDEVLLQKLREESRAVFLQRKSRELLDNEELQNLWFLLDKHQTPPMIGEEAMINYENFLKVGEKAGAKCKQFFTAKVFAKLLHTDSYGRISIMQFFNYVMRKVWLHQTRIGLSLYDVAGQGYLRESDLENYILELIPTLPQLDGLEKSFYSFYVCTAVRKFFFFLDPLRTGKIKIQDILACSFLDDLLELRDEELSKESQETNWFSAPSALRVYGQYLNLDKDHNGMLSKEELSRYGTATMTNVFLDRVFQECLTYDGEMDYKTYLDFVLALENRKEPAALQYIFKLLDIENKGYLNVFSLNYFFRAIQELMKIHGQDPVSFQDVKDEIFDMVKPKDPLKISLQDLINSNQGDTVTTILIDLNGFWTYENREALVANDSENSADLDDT
UniProt Q96LW4: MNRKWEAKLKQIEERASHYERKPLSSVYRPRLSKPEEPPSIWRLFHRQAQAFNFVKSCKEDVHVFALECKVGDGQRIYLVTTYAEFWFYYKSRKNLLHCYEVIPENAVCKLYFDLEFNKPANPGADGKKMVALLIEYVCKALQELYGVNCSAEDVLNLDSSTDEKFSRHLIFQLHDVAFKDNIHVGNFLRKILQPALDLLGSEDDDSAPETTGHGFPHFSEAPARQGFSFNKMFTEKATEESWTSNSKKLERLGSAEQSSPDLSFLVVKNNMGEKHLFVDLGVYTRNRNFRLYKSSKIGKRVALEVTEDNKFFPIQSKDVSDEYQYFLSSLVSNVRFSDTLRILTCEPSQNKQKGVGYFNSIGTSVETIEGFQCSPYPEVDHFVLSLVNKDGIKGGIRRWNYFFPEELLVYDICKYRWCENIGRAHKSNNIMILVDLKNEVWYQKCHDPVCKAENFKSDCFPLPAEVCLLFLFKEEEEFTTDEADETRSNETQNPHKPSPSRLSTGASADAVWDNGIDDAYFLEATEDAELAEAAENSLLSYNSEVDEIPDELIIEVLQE
UniProt O60437: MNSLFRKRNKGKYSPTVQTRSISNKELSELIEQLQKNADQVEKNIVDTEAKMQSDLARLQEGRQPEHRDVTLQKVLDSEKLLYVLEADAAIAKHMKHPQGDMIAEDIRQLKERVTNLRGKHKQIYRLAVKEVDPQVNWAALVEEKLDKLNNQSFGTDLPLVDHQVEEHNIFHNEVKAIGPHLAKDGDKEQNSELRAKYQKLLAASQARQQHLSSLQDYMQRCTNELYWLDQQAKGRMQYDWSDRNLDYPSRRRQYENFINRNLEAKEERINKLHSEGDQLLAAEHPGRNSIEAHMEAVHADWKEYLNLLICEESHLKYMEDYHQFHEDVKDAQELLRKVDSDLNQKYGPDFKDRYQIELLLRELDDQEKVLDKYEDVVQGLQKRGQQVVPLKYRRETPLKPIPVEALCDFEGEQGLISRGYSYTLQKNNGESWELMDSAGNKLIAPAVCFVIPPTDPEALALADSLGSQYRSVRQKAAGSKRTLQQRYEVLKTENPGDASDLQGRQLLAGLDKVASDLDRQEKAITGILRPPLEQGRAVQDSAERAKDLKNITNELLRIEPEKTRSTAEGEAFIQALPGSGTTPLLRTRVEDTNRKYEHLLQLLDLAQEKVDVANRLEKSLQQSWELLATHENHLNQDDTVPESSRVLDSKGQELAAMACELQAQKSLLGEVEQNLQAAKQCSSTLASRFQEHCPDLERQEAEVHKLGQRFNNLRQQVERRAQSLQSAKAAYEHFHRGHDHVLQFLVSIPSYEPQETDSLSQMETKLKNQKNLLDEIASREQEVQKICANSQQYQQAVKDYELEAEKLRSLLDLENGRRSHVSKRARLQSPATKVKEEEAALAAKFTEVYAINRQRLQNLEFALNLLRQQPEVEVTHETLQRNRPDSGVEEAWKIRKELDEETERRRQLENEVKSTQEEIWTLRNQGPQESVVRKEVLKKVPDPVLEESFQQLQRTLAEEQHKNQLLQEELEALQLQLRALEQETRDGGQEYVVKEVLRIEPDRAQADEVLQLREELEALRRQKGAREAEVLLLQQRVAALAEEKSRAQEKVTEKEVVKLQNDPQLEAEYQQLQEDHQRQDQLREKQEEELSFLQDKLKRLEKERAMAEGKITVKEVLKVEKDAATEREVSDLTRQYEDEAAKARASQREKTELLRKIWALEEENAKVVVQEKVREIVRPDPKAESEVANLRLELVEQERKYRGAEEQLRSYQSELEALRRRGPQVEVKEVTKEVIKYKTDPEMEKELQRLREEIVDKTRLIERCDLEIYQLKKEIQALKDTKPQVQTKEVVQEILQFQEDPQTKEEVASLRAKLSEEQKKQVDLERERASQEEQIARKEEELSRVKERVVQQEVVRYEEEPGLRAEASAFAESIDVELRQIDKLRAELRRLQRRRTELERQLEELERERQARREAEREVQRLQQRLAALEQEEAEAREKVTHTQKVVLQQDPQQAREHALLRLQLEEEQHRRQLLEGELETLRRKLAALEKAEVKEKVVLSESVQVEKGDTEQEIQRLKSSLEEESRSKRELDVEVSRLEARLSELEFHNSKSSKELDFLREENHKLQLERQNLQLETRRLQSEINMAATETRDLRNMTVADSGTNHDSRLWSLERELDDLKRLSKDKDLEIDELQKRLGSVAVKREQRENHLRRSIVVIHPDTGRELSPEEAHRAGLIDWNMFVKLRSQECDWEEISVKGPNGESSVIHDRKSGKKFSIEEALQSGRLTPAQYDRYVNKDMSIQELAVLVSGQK
UniProt Q86XN7: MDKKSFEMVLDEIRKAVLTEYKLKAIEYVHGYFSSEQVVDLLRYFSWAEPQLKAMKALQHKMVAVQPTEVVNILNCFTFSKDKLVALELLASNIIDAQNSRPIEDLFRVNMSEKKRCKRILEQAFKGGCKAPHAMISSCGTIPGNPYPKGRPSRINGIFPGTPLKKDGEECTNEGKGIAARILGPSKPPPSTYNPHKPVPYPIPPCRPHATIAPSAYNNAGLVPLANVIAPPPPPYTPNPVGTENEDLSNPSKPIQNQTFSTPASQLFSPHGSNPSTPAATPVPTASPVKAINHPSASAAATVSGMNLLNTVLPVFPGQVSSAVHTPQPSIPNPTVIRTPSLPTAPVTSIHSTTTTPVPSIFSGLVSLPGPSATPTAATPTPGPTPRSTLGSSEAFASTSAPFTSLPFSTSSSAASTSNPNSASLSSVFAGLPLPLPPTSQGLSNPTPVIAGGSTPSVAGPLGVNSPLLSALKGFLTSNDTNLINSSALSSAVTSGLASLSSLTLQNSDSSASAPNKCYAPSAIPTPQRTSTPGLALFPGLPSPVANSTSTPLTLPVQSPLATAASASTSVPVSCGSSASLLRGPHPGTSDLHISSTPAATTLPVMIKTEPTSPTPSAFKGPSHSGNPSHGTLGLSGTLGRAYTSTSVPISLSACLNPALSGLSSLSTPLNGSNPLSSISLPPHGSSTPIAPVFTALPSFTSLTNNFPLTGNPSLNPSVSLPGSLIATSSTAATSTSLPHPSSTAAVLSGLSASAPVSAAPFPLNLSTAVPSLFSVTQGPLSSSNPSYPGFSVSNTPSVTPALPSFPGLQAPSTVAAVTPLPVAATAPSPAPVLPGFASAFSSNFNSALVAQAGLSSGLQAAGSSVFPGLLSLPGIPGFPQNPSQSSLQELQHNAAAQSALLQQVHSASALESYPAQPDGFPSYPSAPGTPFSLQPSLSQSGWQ
UniProt Q8NI37: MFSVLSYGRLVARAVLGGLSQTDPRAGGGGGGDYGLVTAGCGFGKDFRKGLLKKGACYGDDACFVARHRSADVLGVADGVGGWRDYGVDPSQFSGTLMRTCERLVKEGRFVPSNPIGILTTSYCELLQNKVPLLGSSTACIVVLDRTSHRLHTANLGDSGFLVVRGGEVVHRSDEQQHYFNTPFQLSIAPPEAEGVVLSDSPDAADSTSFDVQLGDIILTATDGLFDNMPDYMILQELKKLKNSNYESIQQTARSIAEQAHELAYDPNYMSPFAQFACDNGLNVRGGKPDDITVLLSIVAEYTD
UniProt P57071, whole entry, looked up: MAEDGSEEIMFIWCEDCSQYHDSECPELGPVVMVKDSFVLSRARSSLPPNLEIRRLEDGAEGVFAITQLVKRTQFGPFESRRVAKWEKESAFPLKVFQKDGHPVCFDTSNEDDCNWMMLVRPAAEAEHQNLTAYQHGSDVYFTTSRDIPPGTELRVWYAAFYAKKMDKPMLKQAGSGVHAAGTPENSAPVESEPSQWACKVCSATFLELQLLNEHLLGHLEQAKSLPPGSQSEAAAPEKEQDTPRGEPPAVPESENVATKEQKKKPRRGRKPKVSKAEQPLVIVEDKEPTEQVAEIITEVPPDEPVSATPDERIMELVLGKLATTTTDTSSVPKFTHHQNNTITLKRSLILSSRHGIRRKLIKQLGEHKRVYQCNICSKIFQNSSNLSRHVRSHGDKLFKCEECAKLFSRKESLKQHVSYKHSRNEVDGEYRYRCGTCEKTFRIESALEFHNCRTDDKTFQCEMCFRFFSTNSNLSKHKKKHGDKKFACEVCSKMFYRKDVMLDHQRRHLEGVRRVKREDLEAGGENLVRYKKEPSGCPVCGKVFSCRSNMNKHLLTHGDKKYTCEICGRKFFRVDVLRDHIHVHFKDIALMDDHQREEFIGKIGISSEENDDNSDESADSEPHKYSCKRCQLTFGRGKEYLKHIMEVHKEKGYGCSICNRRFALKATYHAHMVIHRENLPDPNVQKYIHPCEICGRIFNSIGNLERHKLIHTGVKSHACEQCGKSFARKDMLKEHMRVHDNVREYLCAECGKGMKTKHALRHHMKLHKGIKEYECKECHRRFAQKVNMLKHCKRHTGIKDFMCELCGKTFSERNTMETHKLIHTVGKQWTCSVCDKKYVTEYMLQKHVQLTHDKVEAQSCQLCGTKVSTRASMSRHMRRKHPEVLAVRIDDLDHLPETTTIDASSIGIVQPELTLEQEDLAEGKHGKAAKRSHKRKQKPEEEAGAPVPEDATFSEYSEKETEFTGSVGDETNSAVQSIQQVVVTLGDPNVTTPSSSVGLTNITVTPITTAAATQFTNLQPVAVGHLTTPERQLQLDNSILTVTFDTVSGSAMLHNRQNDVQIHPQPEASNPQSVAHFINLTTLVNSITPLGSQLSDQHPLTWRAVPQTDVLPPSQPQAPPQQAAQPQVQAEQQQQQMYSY
UniProt P55345: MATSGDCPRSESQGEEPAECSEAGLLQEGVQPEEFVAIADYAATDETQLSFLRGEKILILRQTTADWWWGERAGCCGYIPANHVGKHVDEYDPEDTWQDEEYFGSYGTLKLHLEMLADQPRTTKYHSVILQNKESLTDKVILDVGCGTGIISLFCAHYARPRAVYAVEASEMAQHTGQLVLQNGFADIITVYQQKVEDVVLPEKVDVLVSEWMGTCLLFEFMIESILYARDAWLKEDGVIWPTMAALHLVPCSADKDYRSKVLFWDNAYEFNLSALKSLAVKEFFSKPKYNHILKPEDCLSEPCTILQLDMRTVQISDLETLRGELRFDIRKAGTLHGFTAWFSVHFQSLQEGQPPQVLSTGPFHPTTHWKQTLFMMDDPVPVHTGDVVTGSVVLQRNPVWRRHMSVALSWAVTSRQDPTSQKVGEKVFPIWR

log2 fold change, inactive:
PPP2R5C isoform 2 (UniProt Q13362) 0.021
PPP6R3 isoform 2 (UniProt Q5H9R7) -0.178
PPT2, A0A140T9Y1 0.086
PRELID1 (UniProt Q9Y255) -0.001
PPM1B isoform 2 (UniProt O75688) -0.057
PPP2R3C (UniProt Q969Q6) 0.057
PPP2CA (UniProt E7ESG8) -0.108
PRIMPOL (UniProt Q96LW4) -0.089
PPL (UniProt O60437) -0.009
PROSER1 (UniProt Q86XN7) 0.056

Each target was assayed with Cc1nc(Nc2ncc(C(=O)Nc3c(C)cccc3Cl)s2)cc(N2CCN(CCO)CC2)n1 [dasatinib] in the same assay as above.
In short: as §1

log2 fold change, inactive:
PPTC7 (UniProt Q8NI37) 0.043
PPP2R5C isoform 2 (UniProt Q13362) -0.02
PPME1 (UniProt Q9Y570) 0.032
PRDM15 (UniProt P57071) 0.018
PPM1B isoform 2 (UniProt O75688) 0.024
PRG2 (UniProt P13727) -0.119
PPP2R3C (UniProt Q969Q6) -0.061
PRDM2 (UniProt Q13029) 0.067
PRIMPOL (UniProt Q96LW4) 0.034
PPIP5K2 (UniProt H0Y9S9) -0.074
PPL (UniProt O60437) 0.231
PRMT2 (UniProt P55345) 0.141
PROSER3, A0A2R8Y8D9 0.052
PROSER1 (UniProt Q86XN7) -0.224

Each target was assayed with Cc1ncc(-c2ccnc(Nc3ccc(S(C)(=O)=O)cc3)n2)n1C(C)C in the same assay as above.
In short: as §1

log2 fold change, inactive:
PPP2R5C isoform 2 (UniProt Q13362) -0.068
PPP6R3 isoform 2 (UniProt Q5H9R7) 0.237
PPT2, A0A140T9Y1 0.089
PRELID1 (UniProt Q9Y255) -0.026
PPM1B isoform 2 (UniProt O75688) -0.086
PPP2R3C (UniProt Q969Q6) -0.13
PPP2CA (UniProt E7ESG8) -0.232
PRIMPOL (UniProt Q96LW4) -0.15
PPL (UniProt O60437) -0.041
PROSER1 (UniProt Q86XN7) -0.036
